# Hit rate of the full screen: of about 350,000 compounds, about 6,000 (1.7%) were called active. The shares of active, inactive and inconclusive entries below differ from those in the screen. No stated cut-off is given here; in the data, active means CPE inhibition above about 20% (passing the limit was not always enough); inconclusive means no clear call, values can overlap the other calls; tested in BHK-21 cells.
# Experiment: protection of cells from dengue 2 killing – plate reader, single concentration, primary screen (AID 651640);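 further: 0% = median of neutral control wells and 100% = median of positive control wells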
# Conditions: DENV2-infected cells, cytopathic effect rescue, at 9.99 µM, active compounds read high
row,Compound,CPE inhibition
1,CSc1ccc(OC2(C)CCN(Cc3ccc4c(c3)OCCO4)C2)cc1 (stereo not drawn),inconclusive: 23.5%
2,Cc1ccn2c(C(C)O)nnc2c1 (stereo not drawn),inconclusive: 31%
3,CN1C(=O)c2cc(NC(=O)c3cscn3)ccc2OC[C@@H]2O[C@@H](CC(=O)N3CCCCC3)CC[C@H]21,inconclusive: 40.5%
4,CSCCC(NC(=O)c1ccc(C(C)(C)C)cc1)C(=O)O (stereo not drawn),inactive: 2.69%
5,CCC(=O)Nc1ccc2c(c1)C(=O)N(C)[C@@H]1CC[C@@H](CC(=O)NCC3CCCCC3)O[C@H]1CO2,inactive: 11.2%
6,CCNC(=O)Nc1ccc2c(c1)C(=O)N(C)[C@H]1CC[C@@H](CC(=O)NC3CCCCC3)O[C@@H]1CO2,active: 27.4%
7,N#CCSc1ccccc1NC(=O)CN1C(=O)C(=O)N(Cc2ccccc2)C1=O,active: 40.6%
8,CC(=O)c1ccc(OCCCC(=O)NC2CCCc3ccccc32)cc1 (stereo not drawn),active: 22.2%
9,C[C@H](CO)N1C[C@H](C)[C@H](CN(C)CC2CCCCC2)OCCCC[C@H](C)Oc2ccc(NS(=O)(=O)c3cn(C)cn3)cc2C1=O,inactive: -3.84%
10,COc1ccc(N(CC(=O)Nc2ccc(F)c(F)c2)S(=O)(=O)c2c(C)n[nH]c2C)cc1,inactive: -4.26%
11,Cc1cc(Nc2ccc([N+](=O)[O-])cc2)c2ccccc2n1,inconclusive: 27.9%
12,COc1ccc(NC(=O)N(C)C[C@@H]2Oc3ccc(NC(=O)Nc4ccc5c(c4)OCO5)cc3CC(=O)N([C@H](C)CO)C[C@H]2C)cc1,inactive: -7.11%
13,Cc1c(NC(=O)CSCc2ccco2)c(=O)n(-c2ccccc2)n1C,inconclusive: 30.6%
14,COc1ccc2c3c([nH]c2c1)[C@H](CO)N(C(C)=O)CC31CCN(C(=O)CN2CCOCC2)CC1,inconclusive: 32%
15,O=C(C[C@@H]1C[C@H]2c3cc(NC(=O)Cc4ccncc4)ccc3O[C@H]2[C@H](CO)O1)NCCN1CCCCC1,inconclusive: 46.4%
16,Cc1ccccc1NC(=O)Cn1nc(C)c2ccccc2c1=O,inconclusive: 32.5%
17,C[C@@H]1CN([C@@H](C)CO)C(=O)c2cc(C#C[C@@H](C)O)cnc2O[C@H]1CN(C)C(=O)Cc1ccccn1,inconclusive: 21.9%
18,CC(=O)N[C@H]1CC[C@H](CCNC(=O)Nc2ccc(C(F)(F)F)cc2)O[C@@H]1CO,inconclusive: 29.3%
19,Cc1ccc(-c2nn(-c3ccccc3)cc2/C=N/n2c(-c3ccncc3)n[nH]c2=S)cc1,inconclusive: 42.4%
20,O=C1C=C(c2cccc(Br)c2)C[C@@H](c2ccc(Cl)cc2)C1,active: 32.2%
21,CC(C)NC(=O)Nc1ccc2c(c1)C(=O)N([C@@H](C)CO)C[C@H](C)[C@@H](CN(C)S(=O)(=O)c1cn(C)cn1)OCCCC[C@H](C)O2,inactive: -10.5%
22,COCC#Cc1cnc2c(c1)C(=O)N([C@H](C)CO)C[C@H](C)[C@H](CN(C)C(=O)Cc1cccnc1)O2,inactive: -4.96%
23,Cc1cc(=O)oc2cc(O)ccc12,inconclusive: 42.3%
24,COC(=O)c1ccc(COc2ccccc2/C=C(\C#N)C(=O)Nc2ccc(C)cc2C)cc1,inactive: 2.63%
25,CO[C@@H]1CN(C)C(=O)c2cc(NS(=O)(=O)CC(F)(F)F)ccc2OC[C@H](C)N(CCC(F)(F)F)C[C@@H]1C,inactive: 2.03%

row,Compound,CPE inhibition
1,O=C(CS(=O)(=O)c1cn(CC(=O)N2CCCC2)c2ccccc12)Nc1ccccc1F,inconclusive: 22.9%
2,CCc1ccc(NC(=O)c2cnn3ccccc23)cc1,inconclusive: 26%
3,c1ccc(COCC2CCNCC2)cc1,inconclusive: 37.8%
4,C[C@@H]1CN([C@H](C)CO)C(=O)c2cc(NC(=O)Cc3ccccc3)ccc2O[C@@H](C)CCCCO[C@H]1CN(C)Cc1ccc2c(c1)OCO2,inconclusive: 22%
5,O=C(O)COCC(=O)Nc1ccc2c(c1)ncn2CCc1ccccc1,inactive: 6%
6,C[C@H]1CCCCO[C@H](CN(C)Cc2ccc3c(c2)OCO3)[C@@H](C)CN([C@@H](C)CO)C(=O)c2cc(NC(=O)Nc3ccccc3)ccc2O1,inactive: 1.41%
7,Cn1cc(CC(=O)Nc2ccc(Nc3cccnc3)cc2)c2ccccc21,active: 53.6%
8,CN1CCN(C(=O)[C@H]2[C@H](CO)[C@H]3Cn4c(ccc(-c5cncnc5)c4=O)[C@H]3N2CC2CCCC2)CC1,inactive: 4.87%
9,COc1cccc(NC(=O)N2CC(=O)N3[C@H](C2)[C@@H](c2ccc(C#CC4CCCC4)cc2)[C@@H]3CO)c1,active: 37.5%
10,COC(=O)c1ccc(C(NC(=O)OCc2ccccc2)/C(F)=C/[C@@H](C)C(=O)O)cc1 (stereo partly drawn),inconclusive: 20.5%
11,O=C1c2cccc3c(O)ccc(c23)C(=O)N1Cc1ccco1,active: 24.2%
12,O=C(CN1CCOCC1)N1CCCCN2[C@@H](CO)[C@@H](c3ccc(C#Cc4ccccc4)cc3)[C@@H]2C1,inactive: -4.51%
13,CC(NCC(O)COCCC12CC3CC(CC(C3)C1)C2)c1ccccc1 (stereo not drawn),inactive: -4.63%
14,COc1ccccc1CNC(=O)COC(=O)c1cccs1,inconclusive: 52.7%
15,CCC(=O)N1[C@H](CO)[C@H](c2ccc(-c3cccnc3)cc2)[C@@H]1CN(C)C(C)=O,inactive: 5.39%
16,Cc1noc(C)c1S(=O)(=O)N(C)C[C@@H]1OCCCC[C@@H](C)Oc2ccc(NC(=O)c3ccccc3)cc2C(=O)N([C@H](C)CO)C[C@@H]1C,inactive: -3.15%
17,Cc1cccc(NC(=O)c2ccc(Cl)nc2)n1,inconclusive: 22.5%
18,CC(=O)Nc1ccc(C(=O)N2CCCC(c3cc(C(=O)NCc4ccccc4)no3)C2)cc1 (stereo not drawn),inconclusive: 20.6%
19,O=C(C[C@H]1CC[C@@H](NS(=O)(=O)c2ccccc2)[C@H](CO)O1)NCc1ccncn1,inactive: -8.65%
20,CCOC(=O)N1CCN(C(=O)C(C)N(c2ccccc2)S(C)(=O)=O)CC1 (stereo not drawn),inactive: -3.31%
21,COc1ccc(NC(=O)CN(C)C(=O)CSCC(=O)Nc2ccc(C)cc2)cc1,inconclusive: 43.6%
22,O=C(Nc1cc(F)ccc1F)N1C[C@@H]2[C@H](c3ccccc31)[C@H](CO)N2Cc1ccncc1,inactive: -4.87%
23,Oc1ccc(C2C=C(c3ccc(F)cc3)Nc3ncnn32)cc1 (stereo not drawn),inconclusive: 25%
24,CCN(C(=O)N1CCOCC1)c1ccccc1,inconclusive: 32.1%
25,Cc1ccc(C)c(NC(=O)Cn2cnc3c(oc4ccccc43)c2=O)c1,inactive: -5.13%

# Fetched one by one from above (two):
row,Compound,CPE inhibition
11,O=C1c2cccc3c(O)ccc(c23)C(=O)N1Cc1ccco1,active: 24.2%
17,Cc1cccc(NC(=O)c2ccc(Cl)nc2)n1,inconclusive: 22.5%

# Carrying on.

row,Compound,CPE inhibition
1,O=C1CCN(Cc2ccc(O)cc2)CCN1CCO,inconclusive: 50.4%
2,CCN1[C@@H]2c3ccc(-c4cccc(OC)c4)c(=O)n3C[C@@H]2[C@@H](CO)[C@@H]1C(=O)N(C)C,inactive: 6.41%
3,CN1C[C@H](O)COC[C@@H]2O[C@@H](CC(=O)NC3CCC3)CC[C@H]21,inactive: 15.8%
4,CCN1[C@@H]2Cn3c(ccc(-c4ccccc4OC)c3=O)[C@H]1[C@@H](C(=O)N1CCOCC1)[C@@H]2CO,inactive: -3.13%
5,COc1ccccc1CN(C)C[C@@H]1OCc2ccccc2-c2c(n(C)c3ccccc23)C(=O)N([C@H](C)CO)C[C@@H]1C,inconclusive: 27%
6,Cc1cc(-c2c(C(=O)N3CCOCC3)c(C)nn2-c2ccccc2)no1,inconclusive: 28.7%
7,Cn1c(Cn2c(=O)sc3ccccc32)nnc1SCC(N)=O,inconclusive: 36.9%
8,O=C(N[C@H]1CC[C@H](CCn2cc(-c3ccccn3)nn2)O[C@H]1CO)c1ccncc1,inactive: 9.67%
9,C[C@@H]1CN([C@@H](C)CO)C(=O)c2cc(NS(=O)(=O)c3ccccc3)ccc2O[C@@H](C)CCCCO[C@H]1CN(C)S(=O)(=O)c1ccc(F)cc1,inactive: -3.12%
10,Cc1ccc(S(=O)(=O)N(CC(=O)N2CCOCC2)c2ccc(Br)cc2)cc1,inconclusive: 28.9%
11,O=C(c1ccccc1F)N1CC2(C1)[C@@H](c1ccccc1)[C@H](CO)N2CC1CC1,active: 29.6%
12,O=C(Nc1cnn(Cc2ccc(F)cc2)c1)c1cc(-c2ccco2)on1,inconclusive: 35.1%
13,O=S(=O)(c1ccc(F)cc1)N1CCN(c2ncccn2)CC1,inactive: 1.44%
14,Cc1ccc(S(=O)(=O)N(C)C[C@H]2Oc3cc(-c4cccc(F)c4)ccc3S(=O)(=O)N([C@@H](C)CO)C[C@@H]2C)cc1,inactive: -8.36%
15,C[C@@H]1CN([C@@H](C)CO)C(=O)c2cc(N(C)C)ccc2O[C@@H](C)CCCCO[C@H]1CN(C)C(=O)CCCN(C)C,inconclusive: 31.7%
16,CC(=O)N1[C@@H]2c3ccc(-c4ccccc4)c(=O)n3C[C@H]1[C@H](CO)[C@H]2C(=O)NCCCN1CCOCC1,inactive: 8.27%
17,C[C@H]1CCCCO[C@@H](CN(C)Cc2ccc(C(=O)O)cc2)[C@@H](C)CN([C@@H](C)CO)C(=O)c2cc(NC(=O)C3CCCCC3)ccc2O1,inconclusive: 63.7%
18,CCC(c1nnc(SCC(=O)Nc2ccc(N3CCOCC3)cc2)n1Cc1ccccc1)N(C)C (stereo not drawn),inconclusive: 45.8%
19,C[C@@H]1CCCCO[C@H](CN(C)S(=O)(=O)c2ccc(Cl)cc2)[C@H](C)CN([C@@H](C)CO)C(=O)c2cc(NS(=O)(=O)c3ccccc3)ccc2O1,inactive: -10.7%
20,CC(NC(=O)c1ccncc1)C(c1cccs1)N1CCOCC1 (stereo not drawn),inactive: -9.46%
21,O=C(Nc1ccccc1)c1nc[nH]c1C(=O)NCCNC(=O)c1[nH]cnc1C(=O)Nc1ccccc1,inconclusive: 46.5%
22,COc1ccc(NC(=O)c2cn(C)c(=O)c3cc(OC)c(OC)cc23)c(OC)c1,inconclusive: 29.4%
23,COC(=O)[C@]12C[C@H](CC(=O)N3CCCCC3)C(=O)N(Cc3ccccc3)C1=C[C@H](C(C)C)O[C@@H]2C1CC1,inconclusive: 32.3%

# Molecules from the list above containing an aryl methoxy group, in the order listed:
row,Compound,CPE inhibition
10,COc1ccc(N(CC(=O)Nc2ccc(F)c(F)c2)S(=O)(=O)c2c(C)n[nH]c2C)cc1,inactive: -4.26%
12,COc1ccc(NC(=O)N(C)C[C@@H]2Oc3ccc(NC(=O)Nc4ccc5c(c4)OCO5)cc3CC(=O)N([C@H](C)CO)C[C@H]2C)cc1,inactive: -7.11%
14,COc1ccc2c3c([nH]c2c1)[C@H](CO)N(C(C)=O)CC31CCN(C(=O)CN2CCOCC2)CC1,inconclusive: 32%
9,COc1cccc(NC(=O)N2CC(=O)N3[C@H](C2)[C@@H](c2ccc(C#CC4CCCC4)cc2)[C@@H]3CO)c1,active: 37.5%
14,COc1ccccc1CNC(=O)COC(=O)c1cccs1,inconclusive: 52.7%
21,COc1ccc(NC(=O)CN(C)C(=O)CSCC(=O)Nc2ccc(C)cc2)cc1,inconclusive: 43.6%
2,CCN1[C@@H]2c3ccc(-c4cccc(OC)c4)c(=O)n3C[C@@H]2[C@@H](CO)[C@@H]1C(=O)N(C)C,inactive: 6.41%
4,CCN1[C@@H]2Cn3c(ccc(-c4ccccc4OC)c3=O)[C@H]1[C@@H](C(=O)N1CCOCC1)[C@@H]2CO,inactive: -3.13%
5,COc1ccccc1CN(C)C[C@@H]1OCc2ccccc2-c2c(n(C)c3ccccc23)C(=O)N([C@H](C)CO)C[C@@H]1C,inconclusive: 27%
22,COc1ccc(NC(=O)c2cn(C)c(=O)c3cc(OC)c(OC)cc23)c(OC)c1,inconclusive: 29.4%
